Record: PubChem BioAssay AID1159578 (Peter MacCallum Cancer Centre, 2015)
The deposit covers about 18,000 reagents; below is an unselected part. About 1,030 of all reagents (5.7%) count as active. 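Inactive calls also include pools with fewer than 3300 nuclei, whose migration was not assessed.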 Raw values vary from plate to plate and are shown uncorrected. The numbers tell different reagents against one gene apart.

Screen: 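Knock-downs that alter how fast lymphatic endothelial cells migrate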 (primary screen)
Cells: human lymphatic endothelial cells
Knock-down reagent: siRNA pool against human genes, 40 nM
Time to read-out: 48 h after transfection
Measured: 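Cells stained with dye and imaged after a scratch; covered wound area and nuclei counted, duplicates averaged, migration set against mock wells and turned into a robust z-score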
Reading the numbers: migration robust z-score: higher = faster migration into the scratch; migration relative to mock: higher = more scratch area covered than mock; nuclei per well: higher = more cells in the well
Call rule: 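Pools averaging fewer than 3300 nuclei are never called; remaining pools count as changed when migration robust z lies outside -2 to 2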
Meaning of the calls: active = migration changed; inactive = no migration change, or too few cells

The first 3 entries, ahead of the listing:
gene knocked down	pool no.	migration robust z-score	migration class with cell-count check	migration relative to mock	nuclei per well, duplicate mean	Call
KLHL20 (kelch like family member 20)	1	0.05	migration z between -2 and 2; enough cells	0.89	5700	inactive
SOX18 (SRY-box transcription factor 18)	1	-0.7	migration z between -2 and 2; enough cells	0.67	5034	inactive
TRPV6	1	-0.9	migration z between -2 and 2; enough cells	0.63	5928	inactive

Results, from the start:
gene knocked down	pool no.	migration robust z-score	migration class with cell-count check	migration relative to mock	nuclei per well, duplicate mean	Call
KLHL20 (kelch like family member 20)	1	0.05	migration z between -2 and 2; enough cells	0.89	5700	inactive
SOX18 (SRY-box transcription factor 18)	1	-0.7	migration z between -2 and 2; enough cells	0.67	5034	inactive
TRPV6	1	-0.9	migration z between -2 and 2; enough cells	0.63	5928	inactive
LIF (LIF interleukin 6 family cytokine)	1	-2.7	under 3300 nuclei; migration not judged	0.29	3283	inactive
TRAK1 (trafficking kinesin protein 1)	1	-0.42	migration z between -2 and 2; enough cells	0.78	6084	inactive
AK4 (adenylate kinase 4)	1	0.57	migration z between -2 and 2; enough cells	0.92	5790	inactive
AK4 (adenylate kinase 4)	2	1.47	migration z between -2 and 2; enough cells	1.27	6712	inactive
MPDU1 (mannose-P-dolichol utilization defect 1)	1	-0.26	migration z between -2 and 2; enough cells	0.82	5006	inactive
SFTPA1 (surfactant protein A1)	1	0.22	migration z between -2 and 2; enough cells	0.94	5616	inactive
SFTPA1 (surfactant protein A1)	2	0.6	migration z between -2 and 2; enough cells	0.92	4182	inactive
GET3 (guided entry of tail-anchored proteins factor 3, ATPase)	1	1.38	migration z between -2 and 2; enough cells	1.07	6084	inactive
GKAP1 (G kinase anchoring protein 1)	1	-0.83	migration z between -2 and 2; enough cells	0.67	7550	inactive
PSMD7 (proteasome 26S subunit, non-ATPase 7)	1	-1.71	migration z between -2 and 2; enough cells	0.48	6630	inactive
ABCB11 (ATP binding cassette subfamily B member 11)	1	0.83	migration z between -2 and 2; enough cells	0.96	4203	inactive
DENND4A (DENN domain containing 4A)	1	0.82	migration z between -2 and 2; enough cells	1.09	6976	inactive
IGF2BP1 (insulin like growth factor 2 mRNA binding protein 1)	1	-1.2	migration z between -2 and 2; enough cells	0.57	5916	inactive
NAA10 (N-alpha-acetyltransferase 10, NatA catalytic subunit)	1	-1.92	migration z between -2 and 2; enough cells	0.44	5798	inactive
PABPC3 (poly(A) binding protein cytoplasmic 3)	1	1.18	migration z between -2 and 2; enough cells	1.19	6416	inactive
CNTNAP5 (contactin associated protein family member 5)	1	0.5	migration z between -2 and 2; enough cells	1.02	5934	inactive
MTMR8 (myotubularin related protein 8)	1	-1.55	migration z between -2 and 2; enough cells	0.5	4858	inactive
FCER2 (Fc epsilon receptor II)	1	0.52	migration z between -2 and 2; enough cells	0.9	6222	inactive
ADAMTS14 (ADAM metallopeptidase with thrombospondin type 1 motif 14)	1	0.36	migration z between -2 and 2; enough cells	0.88	5140	inactive
LAS1L (LAS1 like ribosome biogenesis factor)	1	-0.48	migration z between -2 and 2; enough cells	0.76	5320	inactive
FETUB (fetuin B)	1	1.37	migration z between -2 and 2; enough cells	1.24	6042	inactive
DGAT2 (diacylglycerol O-acyltransferase 2)	1	-0.47	migration z between -2 and 2; enough cells	0.72	4280	inactive
TGM6 (transglutaminase 6)	1	-1.54	migration z between -2 and 2; enough cells	0.48	7880	inactive
NACC1 (nucleus accumbens associated 1)	1	0.57	migration z between -2 and 2; enough cells	1.04	5690	inactive
TAF12 (TATA-box binding protein associated factor 12)	1	-0.86	migration z between -2 and 2; enough cells	0.64	6592	inactive
LRATD2 (LRAT domain containing 2)	1	-0.68	migration z between -2 and 2; enough cells	0.7	4462	inactive
IFT56 (intraflagellar transport 56)	1	2.5	migration z above 2; enough cells	1.53	6448	active
SSRP1 (structure specific recognition protein 1)	1	0.86	migration z between -2 and 2; enough cells	1.11	6320	inactive
FAM124A (family with sequence similarity 124 member A)	1	-0.56	migration z between -2 and 2; enough cells	0.74	5300	inactive
MARCHF2 (membrane associated ring-CH-type finger 2)	1	-0.38	migration z between -2 and 2; enough cells	0.73	4482	inactive
ISOC2 (isochorismatase domain containing 2)	1	-1.97	migration z between -2 and 2; enough cells	0.42	5481	inactive
TGOLN2 (trans-golgi network protein 2)	1	0.44	migration z between -2 and 2; enough cells	1	5891	inactive
CEP44 (centrosomal protein 44)	1	3.77	migration z above 2; enough cells	1.86	7260	active
TESK1 (testis associated actin remodelling kinase 1)	1	-2.23	migration z below -2; enough cells	0.38	4078	active
NUDCD2 (NudC domain containing 2)	1	2	migration z between -2 and 2; enough cells	1.4	6506	inactive
ATXN10 (ataxin 10)	1	1.47	migration z between -2 and 2; enough cells	1.27	5466	inactive
